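Genome-wide siRNA knockdown in TC32 Ewing sarcoma cells, comparing luciferase light from an NR0B1-promoter reporter with a CMV-promoter reporter 48 hours after transfection. Each siRNA was applied at 20 nM. A z-score of the log NR0B1-over-CMV signal, less the median of siRNAs with the same seed; more negative means a stronger specific loss of the NR0B1 reporter.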

The strongest results of the screen are mostly left out here. Sequences are the guide (antisense) strand, without overhang.

| siRNA | target gene | seed-corrected z-score |
|---|---|---|
| `UCUCGUAGAGGAGAUAUCC` | CAMSAP2 | 0.253 |
| `AACGUGUAGGGAAAUGCUG` | DPP6 | 0.4665 |
| `UCAGUUACAAAAAUCUCUU` | BCL2L14 | 0.8093 |
| `UCUAGAUCCAGCUCUGAUG` | PDGFRA | -0.2915 |
| `UUCCUUAUUGCUCAGUUCG` | MICU1 | -0.4014 |
| `UUUGUUGUCUCGCUUGCAC` | PCDH19 | -0.1568 |
| `AAAUCGACCACAACAUCUC` | ALPK1 | 0.1342 |
| `UUACUGGAAGGGUUGAGAG` | BCL9 | -1.668 |
| `UAAAGGGACGUGAGCAGGG` | HS3ST3A1 | -0.08966 |
| `UAAGGUACCAUCUUCCACC` | PADI6 | -0.5351 |
| `UAAUCACGGAUGCAAAUCC` | SLC5A8 | -0.8137 |
| `UUCCUUUGCAUCCAGAGUC` | LOC400940 | -0.005074 |
| `UUGCAUCCAUUCAUCAUUC` | NIM1K | 0.8727 |
| `AAGGUAACCACUUCGUUGG` | CDK14 | 0.3926 |
| `UUAGCCUCUGGAGUAACUG` | RAB42 | -0.4139 |
| `UACUCUUCUUAUCUCUUCC` | TCEAL8 | -0.02899 |
| `UCGGCUUGAAGAUCGAAGG` | SEMA6C | -1.162 |
| `UAACCGGUAGUGUCCAUGG` | RELN | -0.279 |
| `AAUGUUCCCAAAGAUUACC` | ARHGEF9 | -0.3499 |
| `ACAUCGGUAAGUACUGUUG` | ALDH3A2 | 0.9437 |
| `UGCAGGGUAGCUAUAGUCC` | C17orf78 | -0.1712 |
| `UUAAAGGCUCUGUAGAAGU` | C11orf40 | -0.1783 |
| `UAAAAGUCAAAUAUCUCGG` | XAGE5 | 0.4129 |
| `UCUCUUUUCUGCGCUGCGC` | SURF6 | -0.1296 |
| `UAUAUUCUUAGUCUCACCC` | CA14 | 0.3997 |
| `UGUUCUGCCGGAAGUAUGU` | ATP6V1G1 | -0.06115 |
| `UUUCUAGCUCCUGAACUGC` | PGPEP1 | -1.144 |
| `UCUCCAACAAACCAUGGCC` | GSTM4 | -0.04706 |
| `UAACUGACAUCGCGGAGGC` | NGB | 0.1179 |
| `UUUCGAUUCCUACAACUGC` | CXXC5 | 0.3318 |
| `UCAUCUUCAAUGCGAAUCU` | NARFL | 1.34 |
| `AAACUGAGCGAUGACAUCC` | SLC10A5 | -0.2274 |
| `UAAUCGGUUGCAUACGUAC` | SLC1A4 | 0.5622 |
| `UAGCCUGUCAUGAAGUGCU` | GLT6D1 | 0.1561 |
| `UACUCGACAAAGGUCCGCC` | AGRN | -0.01429 |
| `UUGAAUACCUGCAUUGAGC` | KLF8 | 1.214 |
| `UAGUCGUAGACGAACCAGC` | XKR7 | -0.1864 |
| `UAUUUCGAGAUUUCAGCUG` | ARL5B | 0.1262 |
| `UUAGGUUCACACGUCUUCA` | ARSD | 0.1248 |
| `UAUUUACUAAUACCUGGUC` | CBLN2 | -0.5867 |
| `UUCACGAUACGGAACUUGU` | SLC9A1 | -0.0565 |
| `UACUUGCCUCUUCCAGUGC` | ENPEP | -1.126 |
| `AUAUGGAUGAUCUUUGCCG` | SMYD2 | 1.295 |
| `UACGGAGUCUCAUCCAUGG` | PPP1R10 | -1.013 |
| `AAAGACUCGACGAACUUUC` | FAIM2 | -0.9127 |
| `UCACUGGAGAGUUUACCGC` | DRAXIN | 0.01952 |

Some entries from above, unchanged:

UCUCCAACAAACCAUGGCC against GSTM4 read seed-corrected z-score -0.04706.
UCGGCUUGAAGAUCGAAGG against SEMA6C read seed-corrected z-score -1.162.
UACUCUUCUUAUCUCUUCC against TCEAL8 read seed-corrected z-score -0.02899.
AACGUGUAGGGAAAUGCUG against DPP6 read seed-corrected z-score 0.4665.
UUGCAUCCAUUCAUCAUUC against NIM1K read seed-corrected z-score 0.8727.

Source: PubChem BioAssay AID1159506 (NCATS, 2015).